Substitutions are numbered along the chain they refer to. No constants are given. Whether binding was seen depends on the method and setting. Some binding calls cover weakened binding; strength is not graded here. Blank lines part the entries; values can stand above or below the binder they belong to.
Key:
[1] = molecular target: T1, Fz8-CRD (UniProt Q9H461); experiment: yeast surface display, fluorescence-conjugated Fz8-CRD
T1 sequence (fluorescence-conjugated, looked up): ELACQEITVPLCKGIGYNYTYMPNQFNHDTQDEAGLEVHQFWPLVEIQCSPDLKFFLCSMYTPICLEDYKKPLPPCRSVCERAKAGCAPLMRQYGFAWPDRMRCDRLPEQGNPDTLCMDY

[2] = molecular target: T1, Fz8-CRD; experiment: yeast surface titrations (approximate Kd's, not given)

binding [1]: binds
binding [2]: binds
B1: Fz27-B12 (designed binder)
chain: MGVSFSEVMGKQKDEQAREQLKEGMIKIEEQGKKLSETRTQEELQKYVAAVATFALQAGFLGPNLEERRGFNRRGKEEIGKISGEVYLKLLDLKKAVRAKEKKGLDILNMVGEIKGTLERVYA

binding [1]: binds
B2: Fz27 (designed binder)
chain: B1 chain with I26K, V48A, T53A, L56A, Q57A, P63K, L88K, T117L, V121I
